Results are given in words; binding and its absence hold for the method and conditions named. Some entries that bind do so weakly or less than the wild type. One block for each molecule: values may come before it.
What was measured:
BMP6 [1] = target: T1, BMP6 (human, UniProt P22004 382-513, limits assumed); assay: SPR (Biacore), ligand amine-coupled to chip, Fc fusion injected
T1 sequence (looked up): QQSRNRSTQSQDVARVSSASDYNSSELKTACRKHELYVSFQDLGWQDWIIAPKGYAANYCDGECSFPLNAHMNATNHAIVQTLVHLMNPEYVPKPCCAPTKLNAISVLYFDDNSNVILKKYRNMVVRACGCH

Protein sequences, listed by entry. Tags and fused reporters are not part of them. Lines headed by an entry give the natural chain unless they say otherwise; changes in a name come on top.
UniProt P27037: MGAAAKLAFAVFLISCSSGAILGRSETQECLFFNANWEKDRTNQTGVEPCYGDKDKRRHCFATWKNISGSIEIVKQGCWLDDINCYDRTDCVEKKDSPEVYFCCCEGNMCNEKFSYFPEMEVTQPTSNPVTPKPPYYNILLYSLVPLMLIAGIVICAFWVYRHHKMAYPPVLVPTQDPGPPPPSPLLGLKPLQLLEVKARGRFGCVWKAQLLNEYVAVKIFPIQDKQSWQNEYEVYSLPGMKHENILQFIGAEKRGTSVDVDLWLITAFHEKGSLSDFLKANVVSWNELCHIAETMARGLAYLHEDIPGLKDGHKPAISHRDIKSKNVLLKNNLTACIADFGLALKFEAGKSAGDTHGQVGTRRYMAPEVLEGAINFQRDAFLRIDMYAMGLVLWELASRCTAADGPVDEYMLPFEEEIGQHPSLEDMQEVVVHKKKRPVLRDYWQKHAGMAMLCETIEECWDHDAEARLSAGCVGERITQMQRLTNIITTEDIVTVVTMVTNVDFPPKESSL

BMP6 [2] = target: T1, BMP6; assay: as above; remark: listed apart in the source
BMP10 [3] = target: T2, BMP10 (human, UniProt O95393 317-424); assay: SPR kinetics
T2 construct: also called hBMP-10; hBMP10
T2 sequence: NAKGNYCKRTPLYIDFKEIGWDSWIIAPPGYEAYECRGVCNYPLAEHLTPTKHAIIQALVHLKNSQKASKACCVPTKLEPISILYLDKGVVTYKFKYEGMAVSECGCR

BMP10 [4] = target: T2, BMP10; assay: SPR ligand screen
BMP9 [5] = target: T3, BMP9 (human, UniProt Q9UK05 320-429); assay: SPR ligand screen
T3 construct: also called hBMP-9; hBMP9
T3 sequence (looked up): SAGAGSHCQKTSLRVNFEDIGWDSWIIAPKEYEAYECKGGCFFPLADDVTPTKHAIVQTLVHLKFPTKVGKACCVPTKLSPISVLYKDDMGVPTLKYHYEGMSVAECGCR

BMP9 [6] = target: T3, BMP9; assay: SPR ligand screen, hBMP-9 at 5 nM; ++++ = KD <1 nM
BMP10 [7] = target: T2, BMP10; assay: SPR ligand screen, hBMP-10 at 5 nM; ++++ = KD <1 nM
BMP9 [8] = target: T3, BMP9; assay: SPR, captured hENG-hFc, soluble BMP9 at 100 nM; ++++ = KD <1 nM
BMP10 [9] = target: T2, BMP10; assay: SPR, captured hENG-hFc, soluble BMP10 at 100 nM; ++++ = KD <1 nM
BMP6 [10] = target: T1, BMP6; assay: SPR (Biacore), BMP10pro-Fc captured by anti-Fc antibody, ligand injected
BMP6 [11] = target: T1, BMP6; assay: SPR (Biacore), ligand amine-coupled to CM5 chip, Fc fusion injected

binding (BMP6 [1]): binds
Molecule: ActRIIA-mFc (from UniProt P27037 21-135) (Fc fusion)

binding (BMP6 [2]): binds
B1: ActRIIB(L79D 25-131)-mFc (Fc fusion)
chain: ETRECIYYNANWELERTNQSGLERCEGEQDKRLHCYASWRNSSGTIELVKKGCWDDDFNCYDRQECVATEENPQVYFCCCEGNFCNERFTHLPEAGGPEVTYEPPPT
notes: not shown: linker and mouse Fc domain

binding (BMP10 [3]): binds | binding (BMP10 [4]): binds | binding (BMP9 [5]): binds | binding (BMP9 [6]): binds | binding (BMP10 [7]): binds | binding (BMP9 [8]): binds | binding (BMP10 [9]): binds
B2: hENG(26-437)-hFc (Fc fusion, not shown: a dimerising Fc or GST)
chain: ETVHCDLQPVGPERGEVTYTTSQVSKGCVAQAPNAILEVHVLFLEFPTGPSQLELTLQASKQNGTWPREVLLVLSVNSSVFLHLQALGIPLHLAYNSSLVTFQEPPGVNTTELPSFPKTQILEWAAERGPITSAAELNDPQSILLRLGQAQGSLSFCMLEASQDMGRTLEWRPRTPALVRGCHLEGVAGHKEAHILRVLPGHSAGPRTVTVKVELSCAPGDLDAVLILQGPPYVSWLIDANHNMQIWTTGEYSFKIFPEKNIRGFKLPDTPQGLLGEARMLNASIVASFVELPLASIVSLHASSCGGRLQTSPAPIQTTPPKDTCSPELLMSLIQTKCADDAMTLVLKKELVAHLKCTITGLTFWDPSCEAEDRGDKFVLRSAYSSCGMQVSASMISNEAVVNILSSSSPQR

binding (BMP9 [8]): binds | binding (BMP10 [9]): binds
B3: hENG(26-581)-hFc (Fc fusion, not shown: a dimerising Fc or GST)
chain: ETVHCDLQPVGPERGEVTYTTSQVSKGCVAQAPNAILEVHVLFLEFPTGPSQLELTLQASKQNGTWPREVLLVLSVNSSVFLHLQALGIPLHLAYNSSLVTFQEPPGVNTTELPSFPKTQILEWAAERGPITSAAELNDPQSILLRLGQAQGSLSFCMLEASQDMGRTLEWRPRTPALVRGCHLEGVAGHKEAHILRVLPGHSAGPRTVTVKVELSCAPGDLDAVLILQGPPYVSWLIDANHNMQIWTTGEYSFKIFPEKNIRGFKLPDTPQGLLGEARMLNASIVASFVELPLASIVSLHASSCGGRLQTSPAPIQTTPPKDTCSPELLMSLIQTKCADDAMTLVLKKELVAHLKCTITGLTFWDPSCEAEDRGDKFVLRSAYSSCGMQVSASMISNEAVVNILSSSSPQRKKVHCLNMDSLSFQLGLYLSPHFLQASNTIEPGQQSFVQVRVSPSVSEFLLQLDSCHLDLGPEGGTVELIQGRAAKGNCVSLLSPSPEGDPRFSFLLHFYTVPIPKTGTLSCTVALRPKTGSQDQEVHRTVFMRLNIISPDLSG

binding (BMP6 [10]): binds
B4: BMP10pro(22-315)-mFc (Fc fusion, not shown: a dimerising Fc or GST)
chain: SPIMNLEQSPLEEDMSLFGDVFSEQDGVDFNTLLQSMKDEFLKTLNLSDIPTQDSAKVDPPEYMLELYNKFATDRTSMPSANIIRSFKNEDLFSQPVSFNGLRKYPLLFNVSIPHHEEVIMAELRLYTLVQRDRMIYDGVDRKITIFEVLESKGDNEGERNMLVLVSGEIYGTNSEWETFDVTDAIRRWQKSGSSTHQLEVHIESKHDEAEDASSGRLEIDTSAQNKHNPLLIVFSDDQSSDKERKEELNEMISHEQLPELDNLGLDSFSSGPGEEALLQMRSNIIYDSTARIR

binding (BMP6 [11]): binds
B5: ActRIIB-mFc (Fc fusion, not shown: a dimerising Fc or GST)
chain: GRGEAETRECIYYNANWELERTNQSGLERCEGEQDKRLHCYASWRNSSGTIELVKKGCWLDDFNCYDRQECVATEENPQVYFCCCEGNFCNERFTHLPEAGGPEVTYEPPPTAPT

binding (BMP6 [10]): binds
B6: BMP10pro(22-312)-mFc (Fc fusion, not shown: a dimerising Fc or GST)
chain: SPIMNLEQSPLEEDMSLFGDVFSEQDGVDFNTLLQSMKDEFLKTLNLSDIPTQDSAKVDPPEYMLELYNKFATDRTSMPSANIIRSFKNEDLFSQPVSFNGLRKYPLLFNVSIPHHEEVIMAELRLYTLVQRDRMIYDGVDRKITIFEVLESKGDNEGERNMLVLVSGEIYGTNSEWETFDVTDAIRRWQKSGSSTHQLEVHIESKHDEAEDASSGRLEIDTSAQNKHNPLLIVFSDDQSSDKERKEELNEMISHEQLPELDNLGLDSFSSGPGEEALLQMRSNIIYDSTA
